Some entries share one result that the patent states for a list of compounds.
Assays:
Assay type in all cases: in vivo
Spodoptera littoralis = Spodoptera littoralis (Egyptian cotton leafworm) cotton leaf disc spray test; settings: 200 ppm sprayed on cotton leaf discs, 5 L1 larvae; mortality, feeding behaviour, growth regulation 3 DAT
Heliothis virescens = Heliothis virescens (tobacco budworm) egg test on artificial diet; settings: 200 ppm (concentration in well 18 ppm), eggs 0-24 h old on artificial diet; egg mortality, larval mortality, growth regulation after 4 days
Plutella xylostella = Plutella xylostella (diamond back moth) larvae test on artificial diet; settings: 200 ppm (concentration in well 18 ppm), L2 larvae, larval mortality, growth regulation after 6 days
Diabrotica balteata = Diabrotica balteata (corn root worm) larvae test on artificial diet; settings: 200 ppm (concentration in well 18 ppm), L2 larvae, larval mortality, growth regulation after 5 days
Myzus persicae = Myzus persicae (green peach aphid) sunflower leaf disc spray test; settings: 200 ppm sprayed on sunflower leaf discs, mixed ages; mortality 6 DAT
Thrips tabaci = Thrips tabaci (onion thrips) sunflower leaf disc spray test; settings: 200 ppm sprayed on sunflower leaf discs, mixed ages; mortality after 7 days
Tetranychus urticae = Tetranychus urticae (two-spotted spider mite) bean leaf disc spray test; settings: 200 ppm sprayed on bean leaf discs, mixed ages; egg, larval and adult mortality 8 days later

N#Cc1ccc(C(=O)Nc2c(Br)cc(C(F)(C(F)(F)F)C(F)(F)F)cc2Br)cc1NC(=O)c1ccc(F)cc1Cl [A210]
at least 80%: control of Spodoptera littoralis (Spodoptera littoralis) | control of Heliothis virescens (Heliothis virescens) | control of Plutella xylostella (Plutella xylostella) | control of Diabrotica balteata (Diabrotica balteata) | control of Myzus persicae (Myzus persicae) | control of Thrips tabaci (Thrips tabaci) | control of Tetranychus urticae (Tetranychus urticae)

N#Cc1ccc(C(=O)Nc2c(Br)cc(C(F)(C(F)(F)F)C(F)(F)F)cc2Br)cc1NC(=O)c1ccc(F)cc1 [A211]
at least 80%: control of Spodoptera littoralis (Spodoptera littoralis) | control of Heliothis virescens (Heliothis virescens) | control of Plutella xylostella (Plutella xylostella) | control of Diabrotica balteata (Diabrotica balteata) | control of Myzus persicae (Myzus persicae) | control of Thrips tabaci (Thrips tabaci) | control of Tetranychus urticae (Tetranychus urticae)

N#Cc1ccc(C(=O)Nc2cc(C(=O)Nc3c(Br)cc(C(F)(C(F)(F)F)C(F)(F)F)cc3Br)ccc2C#N)cc1 [A212]
at least 80%: control of Spodoptera littoralis (Spodoptera littoralis) | control of Heliothis virescens (Heliothis virescens) | control of Plutella xylostella (Plutella xylostella) | control of Diabrotica balteata (Diabrotica balteata) | control of Myzus persicae (Myzus persicae) | control of Thrips tabaci (Thrips tabaci) | control of Tetranychus urticae (Tetranychus urticae)

COCc1cc(C(F)(C(F)(F)F)C(F)(F)C(F)(F)F)cc(C)c1NC(=O)c1ccc(C#N)c(NC(=O)c2ccc(C#N)cc2Cl)c1 (stereo not shown) [A213]
at least 80%: control of Spodoptera littoralis (Spodoptera littoralis) | control of Heliothis virescens (Heliothis virescens) | control of Plutella xylostella (Plutella xylostella) | control of Diabrotica balteata (Diabrotica balteata) | control of Myzus persicae (Myzus persicae) | control of Thrips tabaci (Thrips tabaci) | control of Tetranychus urticae (Tetranychus urticae)

CCc1cc(C(F)(C(F)(F)F)C(F)(F)C(F)(F)F)cc(CC)c1NC(=O)c1ccc(C#N)c(NC(=O)c2ccc([N+](=O)[O-])cc2)c1 (stereo not shown) [A215]
at least 80%: control of Spodoptera littoralis (Spodoptera littoralis) | control of Heliothis virescens (Heliothis virescens) | control of Plutella xylostella (Plutella xylostella) | control of Diabrotica balteata (Diabrotica balteata) | control of Myzus persicae (Myzus persicae) | control of Thrips tabaci (Thrips tabaci) | control of Tetranychus urticae (Tetranychus urticae)

CCc1cc(C(F)(C(F)(F)F)C(F)(F)C(F)(F)F)cc(CC)c1NC(=O)c1ccc(C#N)c(NC(=O)c2ccc([N+](=O)[O-])cc2Cl)c1 (stereo not shown) [A216]
at least 80%: control of Spodoptera littoralis (Spodoptera littoralis) | control of Heliothis virescens (Heliothis virescens) | control of Plutella xylostella (Plutella xylostella) | control of Diabrotica balteata (Diabrotica balteata) | control of Myzus persicae (Myzus persicae) | control of Thrips tabaci (Thrips tabaci) | control of Tetranychus urticae (Tetranychus urticae)

COCc1cc(C(F)(C(F)(F)F)C(F)(F)F)cc(C)c1NC(=O)c1ccc(C#N)c(NC(=O)c2ccccc2)c1 [A218]
at least 80%: control of Spodoptera littoralis (Spodoptera littoralis) | control of Heliothis virescens (Heliothis virescens) | control of Plutella xylostella (Plutella xylostella) | control of Diabrotica balteata (Diabrotica balteata) | control of Myzus persicae (Myzus persicae) | control of Thrips tabaci (Thrips tabaci) | control of Tetranychus urticae (Tetranychus urticae)

From patent US8389766B2, “Insecticidal compounds” (Syngenta Crop Protection LLC, priority 2006, dated 2013)
